These are yes or no findings as the source states them, for the method shown. Binding seen in cells or lysates may run through a third protein.
Biological target: T1, PIN2-mCherry (Arabidopsis thaliana) (UniProt Q9LU77)
T1 sequence: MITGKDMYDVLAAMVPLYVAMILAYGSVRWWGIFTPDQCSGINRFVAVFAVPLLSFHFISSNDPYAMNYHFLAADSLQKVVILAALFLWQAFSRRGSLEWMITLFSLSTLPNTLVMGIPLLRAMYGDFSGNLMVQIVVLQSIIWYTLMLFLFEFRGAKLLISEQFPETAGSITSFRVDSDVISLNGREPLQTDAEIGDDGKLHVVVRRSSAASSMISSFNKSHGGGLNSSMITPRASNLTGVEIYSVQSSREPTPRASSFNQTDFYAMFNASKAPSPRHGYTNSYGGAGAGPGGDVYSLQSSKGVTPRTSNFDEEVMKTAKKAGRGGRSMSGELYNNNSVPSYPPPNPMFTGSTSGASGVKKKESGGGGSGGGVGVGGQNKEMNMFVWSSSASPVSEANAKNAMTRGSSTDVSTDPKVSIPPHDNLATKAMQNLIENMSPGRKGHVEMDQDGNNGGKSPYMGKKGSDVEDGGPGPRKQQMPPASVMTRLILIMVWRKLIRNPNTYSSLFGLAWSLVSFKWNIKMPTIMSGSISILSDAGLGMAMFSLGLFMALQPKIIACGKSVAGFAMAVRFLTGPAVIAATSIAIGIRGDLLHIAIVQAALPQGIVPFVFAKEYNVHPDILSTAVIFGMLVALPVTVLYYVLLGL
Experiment: FRET or BRET; FLIM-FRET (time correlated single photon counting, PicoQuant kit on Olympus FV3000 CLSM) in living transgenic A. thaliana seedlings; donor EGFP/GFP6/GFP, acceptor mCherry on PIN2; tau average intensity; E = 1 - tauDA/tauD

“BRASSINOSTEROID …1 fused to GFP (BRI1-GFP) (from UniProt O22476 24-1196) (receptor)” was tested, and the binding was “no binding”.
